According to the supplement of paper PMC10849652:
The list shows a part of the results.

Chains of the proteins cited; added tags and fusions are not shown. Lines headed by an entry give the natural chain unless they say otherwise; changes in a name come on top.
UniProt Q9BUT1: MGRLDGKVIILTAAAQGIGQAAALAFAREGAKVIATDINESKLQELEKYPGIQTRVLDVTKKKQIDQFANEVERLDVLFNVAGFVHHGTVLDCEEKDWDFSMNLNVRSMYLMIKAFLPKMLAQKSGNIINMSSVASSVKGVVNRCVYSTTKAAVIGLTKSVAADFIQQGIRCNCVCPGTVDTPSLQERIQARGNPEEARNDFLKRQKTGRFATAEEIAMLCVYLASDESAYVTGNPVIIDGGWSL
UniProt Q6PGQ7, whole entry, looked up: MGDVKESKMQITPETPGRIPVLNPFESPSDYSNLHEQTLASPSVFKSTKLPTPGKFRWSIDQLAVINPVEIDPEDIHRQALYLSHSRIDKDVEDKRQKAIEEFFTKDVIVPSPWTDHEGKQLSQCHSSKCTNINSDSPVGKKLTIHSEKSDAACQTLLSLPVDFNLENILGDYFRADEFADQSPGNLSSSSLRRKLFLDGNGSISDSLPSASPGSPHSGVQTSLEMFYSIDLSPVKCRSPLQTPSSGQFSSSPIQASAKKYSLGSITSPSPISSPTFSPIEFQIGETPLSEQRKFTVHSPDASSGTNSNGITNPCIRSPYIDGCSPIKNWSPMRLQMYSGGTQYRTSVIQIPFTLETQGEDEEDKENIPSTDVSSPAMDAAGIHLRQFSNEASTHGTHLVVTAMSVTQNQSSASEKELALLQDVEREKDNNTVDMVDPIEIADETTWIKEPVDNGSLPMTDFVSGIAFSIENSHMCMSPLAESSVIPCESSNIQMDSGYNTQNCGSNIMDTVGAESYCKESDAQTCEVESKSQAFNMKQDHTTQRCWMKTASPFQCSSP
UniProt Q96B45: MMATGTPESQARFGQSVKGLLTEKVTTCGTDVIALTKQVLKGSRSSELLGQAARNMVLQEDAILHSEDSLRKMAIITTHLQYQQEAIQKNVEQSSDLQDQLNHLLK
UniProt Q96Q07: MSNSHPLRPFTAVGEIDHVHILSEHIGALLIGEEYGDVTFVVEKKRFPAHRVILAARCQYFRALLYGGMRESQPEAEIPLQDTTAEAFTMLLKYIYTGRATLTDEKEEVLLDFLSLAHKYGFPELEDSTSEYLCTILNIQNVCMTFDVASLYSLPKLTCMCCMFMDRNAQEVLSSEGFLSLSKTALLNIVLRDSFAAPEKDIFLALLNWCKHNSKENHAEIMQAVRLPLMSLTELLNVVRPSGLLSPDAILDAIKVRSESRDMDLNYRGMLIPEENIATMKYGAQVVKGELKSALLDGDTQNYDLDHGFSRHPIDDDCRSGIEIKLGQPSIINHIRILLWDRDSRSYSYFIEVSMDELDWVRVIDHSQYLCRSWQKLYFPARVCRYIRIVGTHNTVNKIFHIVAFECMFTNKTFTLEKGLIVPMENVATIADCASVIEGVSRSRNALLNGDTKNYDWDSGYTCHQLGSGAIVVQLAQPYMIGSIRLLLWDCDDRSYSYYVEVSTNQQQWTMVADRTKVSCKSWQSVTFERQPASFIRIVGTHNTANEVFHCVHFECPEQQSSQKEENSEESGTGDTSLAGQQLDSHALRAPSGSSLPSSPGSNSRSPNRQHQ
UniProt Q96G97: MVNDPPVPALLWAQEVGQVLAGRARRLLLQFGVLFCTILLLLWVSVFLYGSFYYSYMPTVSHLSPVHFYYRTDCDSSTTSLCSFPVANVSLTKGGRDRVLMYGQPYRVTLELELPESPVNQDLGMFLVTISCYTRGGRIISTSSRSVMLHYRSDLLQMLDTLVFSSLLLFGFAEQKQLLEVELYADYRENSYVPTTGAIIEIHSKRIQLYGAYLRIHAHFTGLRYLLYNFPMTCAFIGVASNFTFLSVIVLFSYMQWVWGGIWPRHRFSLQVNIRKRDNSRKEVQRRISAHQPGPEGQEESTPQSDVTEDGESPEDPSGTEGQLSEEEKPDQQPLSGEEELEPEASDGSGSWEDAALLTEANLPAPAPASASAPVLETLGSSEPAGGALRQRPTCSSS
UniProt Q96IK1: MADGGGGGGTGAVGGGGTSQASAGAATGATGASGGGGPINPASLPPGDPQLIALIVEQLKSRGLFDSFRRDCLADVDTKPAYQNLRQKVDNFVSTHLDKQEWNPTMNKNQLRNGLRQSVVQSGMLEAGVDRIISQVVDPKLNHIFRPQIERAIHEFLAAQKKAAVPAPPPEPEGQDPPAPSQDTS
UniProt Q92934: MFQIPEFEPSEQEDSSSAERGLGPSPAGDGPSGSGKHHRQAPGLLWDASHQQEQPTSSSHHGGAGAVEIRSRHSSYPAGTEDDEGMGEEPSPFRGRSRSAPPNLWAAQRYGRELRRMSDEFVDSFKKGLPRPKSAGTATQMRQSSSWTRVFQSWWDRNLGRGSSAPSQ
UniProt O75363: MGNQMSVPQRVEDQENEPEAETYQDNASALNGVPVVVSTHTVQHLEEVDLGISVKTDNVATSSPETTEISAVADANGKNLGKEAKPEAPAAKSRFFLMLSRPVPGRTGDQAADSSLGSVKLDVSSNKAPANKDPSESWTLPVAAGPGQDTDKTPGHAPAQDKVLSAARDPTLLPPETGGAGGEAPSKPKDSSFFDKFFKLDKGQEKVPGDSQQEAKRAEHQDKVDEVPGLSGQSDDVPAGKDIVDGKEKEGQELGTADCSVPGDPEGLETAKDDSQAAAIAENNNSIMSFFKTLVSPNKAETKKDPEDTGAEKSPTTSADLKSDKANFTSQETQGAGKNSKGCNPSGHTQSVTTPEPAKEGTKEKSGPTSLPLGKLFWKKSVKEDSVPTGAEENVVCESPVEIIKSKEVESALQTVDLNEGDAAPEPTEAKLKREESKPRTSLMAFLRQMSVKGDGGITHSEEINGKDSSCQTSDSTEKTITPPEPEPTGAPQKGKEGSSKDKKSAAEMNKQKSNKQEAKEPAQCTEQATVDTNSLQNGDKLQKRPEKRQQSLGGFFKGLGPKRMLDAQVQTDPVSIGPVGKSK
UniProt Q5PSV4: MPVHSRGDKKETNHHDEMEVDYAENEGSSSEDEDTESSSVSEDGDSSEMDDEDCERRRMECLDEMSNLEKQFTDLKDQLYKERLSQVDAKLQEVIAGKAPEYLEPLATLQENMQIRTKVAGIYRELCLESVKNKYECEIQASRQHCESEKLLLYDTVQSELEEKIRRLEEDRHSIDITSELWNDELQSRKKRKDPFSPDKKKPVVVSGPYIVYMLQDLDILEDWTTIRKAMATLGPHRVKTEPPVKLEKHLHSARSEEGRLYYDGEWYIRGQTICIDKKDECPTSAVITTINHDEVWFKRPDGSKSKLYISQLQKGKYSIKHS
UniProt Q9NQY0: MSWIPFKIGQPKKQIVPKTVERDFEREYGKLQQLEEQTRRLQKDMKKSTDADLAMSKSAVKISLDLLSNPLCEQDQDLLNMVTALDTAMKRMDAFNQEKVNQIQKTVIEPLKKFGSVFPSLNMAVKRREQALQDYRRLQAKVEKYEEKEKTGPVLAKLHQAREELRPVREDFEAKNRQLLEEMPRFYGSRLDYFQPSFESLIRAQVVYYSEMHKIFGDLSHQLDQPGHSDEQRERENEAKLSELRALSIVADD
UniProt Q8TBE0: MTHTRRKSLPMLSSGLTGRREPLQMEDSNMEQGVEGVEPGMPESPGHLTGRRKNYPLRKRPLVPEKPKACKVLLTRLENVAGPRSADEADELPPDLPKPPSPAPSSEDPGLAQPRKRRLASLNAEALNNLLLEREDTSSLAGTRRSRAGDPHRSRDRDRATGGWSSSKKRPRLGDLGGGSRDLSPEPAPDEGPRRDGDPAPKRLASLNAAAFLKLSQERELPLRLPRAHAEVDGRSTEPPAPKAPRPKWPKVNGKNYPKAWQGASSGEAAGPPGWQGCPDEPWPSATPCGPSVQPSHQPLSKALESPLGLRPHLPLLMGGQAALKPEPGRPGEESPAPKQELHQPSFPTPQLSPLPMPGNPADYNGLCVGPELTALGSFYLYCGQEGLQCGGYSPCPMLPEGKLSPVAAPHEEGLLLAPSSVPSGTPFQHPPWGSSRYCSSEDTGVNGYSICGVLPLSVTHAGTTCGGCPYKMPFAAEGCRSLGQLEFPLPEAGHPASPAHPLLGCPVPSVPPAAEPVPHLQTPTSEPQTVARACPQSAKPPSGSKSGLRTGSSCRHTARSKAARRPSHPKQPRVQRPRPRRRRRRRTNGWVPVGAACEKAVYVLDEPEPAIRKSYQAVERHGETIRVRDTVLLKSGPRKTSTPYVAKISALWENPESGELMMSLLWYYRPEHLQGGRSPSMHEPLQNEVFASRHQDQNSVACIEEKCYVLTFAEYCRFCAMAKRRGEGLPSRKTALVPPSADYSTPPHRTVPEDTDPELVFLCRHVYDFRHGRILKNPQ
UniProt Q9NZM4: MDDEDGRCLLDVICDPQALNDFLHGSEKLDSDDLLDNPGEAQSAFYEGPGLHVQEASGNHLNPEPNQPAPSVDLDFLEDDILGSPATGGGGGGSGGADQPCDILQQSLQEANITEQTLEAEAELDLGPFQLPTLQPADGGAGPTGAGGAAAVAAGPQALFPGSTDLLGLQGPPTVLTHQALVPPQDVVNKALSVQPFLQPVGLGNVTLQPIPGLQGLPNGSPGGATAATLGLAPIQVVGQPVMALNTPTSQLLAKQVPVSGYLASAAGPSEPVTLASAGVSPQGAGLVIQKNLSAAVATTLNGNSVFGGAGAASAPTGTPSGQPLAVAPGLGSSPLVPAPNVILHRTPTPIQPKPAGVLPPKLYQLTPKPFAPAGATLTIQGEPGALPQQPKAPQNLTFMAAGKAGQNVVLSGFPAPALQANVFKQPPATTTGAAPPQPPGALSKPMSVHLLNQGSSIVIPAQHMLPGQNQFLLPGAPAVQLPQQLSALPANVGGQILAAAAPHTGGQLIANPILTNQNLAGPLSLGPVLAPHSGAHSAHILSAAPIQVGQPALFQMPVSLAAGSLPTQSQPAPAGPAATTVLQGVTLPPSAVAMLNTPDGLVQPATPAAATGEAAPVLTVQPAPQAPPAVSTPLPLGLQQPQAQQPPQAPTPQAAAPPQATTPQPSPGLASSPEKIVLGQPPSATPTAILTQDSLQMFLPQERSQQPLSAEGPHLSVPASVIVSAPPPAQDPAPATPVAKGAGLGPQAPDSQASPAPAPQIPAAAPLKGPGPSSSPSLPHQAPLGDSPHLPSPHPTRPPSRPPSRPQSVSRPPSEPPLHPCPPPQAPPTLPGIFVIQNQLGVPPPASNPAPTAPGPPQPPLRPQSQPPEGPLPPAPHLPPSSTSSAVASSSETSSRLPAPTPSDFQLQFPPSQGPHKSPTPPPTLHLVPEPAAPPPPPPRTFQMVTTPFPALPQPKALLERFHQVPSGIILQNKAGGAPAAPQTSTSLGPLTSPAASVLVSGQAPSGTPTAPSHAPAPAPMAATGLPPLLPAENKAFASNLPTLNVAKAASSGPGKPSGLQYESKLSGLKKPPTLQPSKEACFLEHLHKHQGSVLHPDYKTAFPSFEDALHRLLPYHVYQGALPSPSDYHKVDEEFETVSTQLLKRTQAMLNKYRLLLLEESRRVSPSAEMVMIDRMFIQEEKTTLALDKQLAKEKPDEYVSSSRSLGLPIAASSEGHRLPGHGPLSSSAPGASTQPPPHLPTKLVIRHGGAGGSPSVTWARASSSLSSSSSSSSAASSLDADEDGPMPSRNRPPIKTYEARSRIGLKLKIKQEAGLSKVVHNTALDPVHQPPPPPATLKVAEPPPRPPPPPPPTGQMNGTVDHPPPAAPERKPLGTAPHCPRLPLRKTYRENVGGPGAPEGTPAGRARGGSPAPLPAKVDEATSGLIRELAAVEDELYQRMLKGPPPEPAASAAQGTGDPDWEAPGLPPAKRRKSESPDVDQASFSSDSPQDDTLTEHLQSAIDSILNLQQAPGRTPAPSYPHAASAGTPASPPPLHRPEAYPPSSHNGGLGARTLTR

Legend:
Experiment in all cases: log2 fold change, soluble protein after heating vs DMSO (PISA); higher = thermal stabilisation; K562 lysate, 10 uM; active = over 0.2 and 3.5 SD of the protein, either way, in both replicates (recomputed)
[1] = compound: CS(=O)(=O)CCNCc1ccc(-c2ccc3ncnc(Nc4ccc(OCc5cccc(F)c5)c(Cl)c4)c3c2)o1 [lapatinib]
Method in brief: (§1)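 Dounce homogenisation of K562 pellets in PBS pH 7.4 with 1 mM MgCl2 produced a crude extract, used at 1 mg/mL protein. Exposure to 10 μM compound lasted 30 min, and aliquots were then heated for 3 min across 48°C-58°C, pooled and brought to 0.5% NP-40 at 4°C. The supernatant after 21,000xg for 90 min was quantified by TMTpro 16plex LC-MS/MS with channel sums equalised. Duplicate values are given as log-two fold change in thermal stability relative to solvent controls.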

[2] = compound: CS(=O)(=O)N1CCN(Cc2cc3nc(-c4cccc5[nH]ncc45)nc(N4CCOCC4)c3s2)CC1 [pictilisib]
Method in brief: as §1

[3] = compound: C[C@@H](Oc1cc(-c2cnn(C3CCNCC3)c2)cnc1N)c1c(Cl)ccc(F)c1Cl [crizotinib]
Method in brief: as §1

[4] = compound: C[C@H](Nc1ncnc2nc[nH]c12)c1cc2cccc(Cl)c2c(=O)n1-c1ccccc1 [duvelisib]
Method in brief: as §1

[5] = compound: Cc1cc(Nc2cc(N3CCN(C)CC3)nc(Sc3ccc(NC(=O)C4CC4)cc3)n2)n[nH]1 [tozasertib]
Method in brief: as §1

[6] = compound: Cc1ccc(-n2nc(C(C)(C)C)cc2NC(=O)Nc2ccc(OCCN3CCOCC3)c3ccccc23)cc1 [doramapimod]
Method in brief: as §1

[7] = compound: Cc1ccc(NC(=O)c2ccc(CN3CC[C@H](N(C)C)C3)c(C(F)(F)F)c2)cc1Nc1nccc(-c2cncnc2)n1 [bafetinib]
Method in brief: as §1

[8] = compound: Cc1cn(-c2cc(NC(=O)c3ccc(C)c(Nc4nccc(-c5cccnc5)n4)c3)cc(C(F)(F)F)c2)cn1 [nilotinib]
Method in brief: as §1

[9] = compound: Cc1nc(Nc2n[nH]c3c2CN(C(=O)N[C@H](CN(C)C)c2ccccc2)C3(C)C)c2sccc2n1
Method in brief: as §1

[10] = compound: Cc1nc(Nc2ncc(C(=O)Nc3c(C)cccc3Cl)s2)cc(N2CCN(CCO)CC2)n1 [dasatinib]
Method in brief: as §1

[11] = compound: Cc1ncc(-c2ccnc(Nc3ccc(S(C)(=O)=O)cc3)n2)n1C(C)C
Method in brief: as §1

[12] = compound: Cn1cc(-c2ccc3c(c2)CCN3C(=O)Cc2cccc(C(F)(F)F)c2)c2c(N)ncnc21
Method in brief: as §1

[13] = compound: Cn1cc(CNCC2CCN(c3ncc(C(=O)NO)cn3)CC2)c2ccccc21 [quisinostat]
Method in brief: as §1

[14] = compound: Cn1cncc1[C@@](N)(c1ccc(Cl)cc1)c1ccc2c(c1)c(-c1cccc(Cl)c1)cc(=O)n2C [tipifarnib]
Method in brief: as §1

[15] = compound: NC(=O)Nc1cc(-c2cccc(F)c2)sc1C(=O)N[C@H]1CCCNC1
Method in brief: as §1

[16] = compound: NC(=O)c1cnc(N[C@@H]2CCCC[C@@H]2N)nc1Nc1cccc(-n2nccn2)c1
Method in brief: as §1

[17] = compound: NC1(c2ccc(-c3nc4ccn5c(=O)[nH]nc5c4cc3-c3ccccc3)cc2)CCC1
Method in brief: as §1

[18] = compound: C[C@H](C1=CC=C(C=C1)C(=O)NC2=C3C=CNC3=NC=C2)N
Method in brief: as §1

[19] = compound: Cc1cc(Nc2cc(CN3CCOCC3)c3nc(C)c(Cc4ccc(Cl)cc4F)n3n2)n[nH]1 [gandotinib]
Method in brief: as §1

[20] = compound: Cc1cccc(CC(=O)N2CCc3c2ccc(-c2cn(C)c4ncnc(N)c24)c3F)n1
Method in brief: as §1

Measured: log2 fold change

BDH2 (UniProt Q9BUT1)
inactive: [1] -0.007 | [2] 0.01 | [3] 0.062 | [4] 0.057 | [5] -0.08 | [6] -0.075 | [7] -0.021 | [8] -0.005 | [9] -0.064 | [10] -0.022 | [11] -0.076 | [12] 0.147 | [13] -0.108 | [14] 0.162 | [15] 0.188 | [16] -0.044 | [17] 0.02

BORA (UniProt Q6PGQ7)
inactive: [2] 0.038 | [3] 0.009 | [18] 0.023 | [4] 0.005 | [19] -0.161 | [5] 0.001 | [6] -0.046 | [7] 0.038 | [20] -0.103 | [8] -0.005 | [9] 0.043 | [10] 0.034 | [11] -0.071 | [12] -0.077 | [13] 0.085 | [14] -0.007 | [15] -0.024 | [17] 0.057

BORCS7 (UniProt Q96B45)
inactive: [1] -0.008 | [2] 0.072 | [3] -0.038 | [18] 0.159 | [19] 0.142 | [6] -0.064 | [7] 0.015 | [20] -0.08 | [8] -0.01 | [9] 0.146 | [11] 0.284 | [13] -0.038 | [14] 0.002 | [15] -0.012 | [16] -0.093 | [17] -0.072

BTBD9 (UniProt Q96Q07)
inactive: [1] 0.107 | [16] -0.33 | [17] -0.298

BSCL2 isoform 4 (UniProt Q96G97)
inactive: [1] -0.19 | [3] -0.018 | [18] -0.052 | [19] 0.005 | [6] -0.022 | [20] 0.274 | [8] -0.119 | [9] 0.299 | [11] 0.036 | [13] -0.155 | [14] -0.26 | [15] -0.018 | [16] -0.137 | [17] -0.157

BOD1 (UniProt Q96IK1)
inactive: [1] -0.081 | [3] -0.045 | [18] 0.073 | [4] 0.396 | [19] -0.125 | [6] 0.014 | [20] 0.06 | [10] 0.326 | [12] 0.197 | [13] 0.097 | [15] -0.106 | [16] 0.156

BAD (UniProt Q92934)
inactive: [2] 0.153 | [3] -0.089 | [18] -0.107 | [4] 0.135 | [19] 0.055 | [5] 0.097 | [6] 0.032 | [7] -0.002 | [20] 0.04 | [10] -0.023 | [12] 0.021 | [13] 0.03 | [15] -0.017 | [17] 0.113

BLVRA (UniProt C9J1E1)
inactive: [1] 0.012 | [8] -0.193 | [9] 0.098 | [11] 0.158 | [14] -0.147 | [16] -0.083

BCAS1 isoform 2 (UniProt O75363)
inactive: [1] 0.051 | [2] 0.004 | [3] -0.041 | [18] 0.064 | [19] 0.067 | [5] 0.06 | [6] 0.028 | [7] -0.029 | [20] -0.03 | [8] 0.01 | [9] -0.04 | [11] 0.007 | [13] 0.051 | [14] -0.109 | [15] -0.03 | [16] 0.189

BRMS1L (UniProt Q5PSV4)
inactive: [1] 0.017 | [5] 0.068 | [16] 0.025

BIN3 (UniProt Q9NQY0)
inactive: [2] 0 | [3] -0.046 | [18] 0.017 | [4] 0.033 | [19] -0.081 | [6] 0.174 | [7] -0.052 | [20] -0.252 | [10] -0.143 | [12] -0.08 | [13] -0.049 | [15] 0.027 | [17] 0.145

BAHD1 (UniProt Q8TBE0)
inactive: [2] 0.084 | [3] 0.026 | [18] -0.004 | [4] 0.16 | [19] 0.023 | [6] 0.054 | [7] -0.02 | [20] 0.014 | [10] 0.056 | [12] 0.036 | [13] 0.105 | [15] -0.033

Four successive entries from above, for reference:
BLVRA (UniProt C9J1E1)
inactive: [1] 0.012 | [8] -0.193 | [9] 0.098 | [11] 0.158 | [14] -0.147 | [16] -0.083

BCAS1 isoform 2 (UniProt O75363)
inactive: [1] 0.051 | [2] 0.004 | [3] -0.041 | [18] 0.064 | [19] 0.067 | [5] 0.06 | [6] 0.028 | [7] -0.029 | [20] -0.03 | [8] 0.01 | [9] -0.04 | [11] 0.007 | [13] 0.051 | [14] -0.109 | [15] -0.03 | [16] 0.189

BRMS1L (UniProt Q5PSV4)
inactive: [1] 0.017 | [5] 0.068 | [16] 0.025

BIN3 (UniProt Q9NQY0)
inactive: [2] 0 | [3] -0.046 | [18] 0.017 | [4] 0.033 | [19] -0.081 | [6] 0.174 | [7] -0.052 | [20] -0.252 | [10] -0.143 | [12] -0.08 | [13] -0.049 | [15] 0.027 | [17] 0.145

(listing goes on)

BICRA (UniProt Q9NZM4)
inactive: [1] -0.099 | [2] 0.052 | [3] -0.059 | [18] -0.027 | [4] 0.105 | [19] 0.171 | [6] 0.014 | [7] 0.078 | [20] 0.133 | [10] 0.088 | [12] -0.1 | [13] 0.037 | [15] -0.004 | [16] 0.054 | [17] -0.382
